Measurements reported in PubChem BioAssay AID504784 (Drosophila RNAi Screening Center, 2011).
In all, the deposit lists about 17,000 reagents; this is a random part of those that have a named target and a result. 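Each column is one replicate's B-score; the combined score over replicates was not deposited, so single values may mislead.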 Names joined by + are all predicted targets of the reagent. Not all columns of the deposit are shown.

Test: 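Fly genes whose silencing alters how much lipid cells keep in droplets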 (primary screen)
Cell system: Drosophila Kc167 embryonic cells
Reagent: long dsRNA against Drosophila genes, about 250 ng dsRNA per well
Duration: 4 days
Treatment: cells fed 400 µM oleic acid bound to BSA
Measured: 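Microscope images give a droplet-to-nucleus area ratio, taken as log and converted to a screen-wide B-score; higher values mean greater lipid storage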
Scale: droplet/nuclear area B-score: higher = more stored lipid (overstorage)

| gene | amplicon | droplet/nuclear area B-score, replicate 1 | droplet/nuclear area B-score, replicate 2 |
| --- | --- | --- | --- |
| Ugt307A1 | DRSC02138 | 0.614 | -0.534 |
| Ndc1 | DRSC15895 | -0.49 | -0.327 |
| tHMG1 | DRSC16181 | -1.17 | -1.55 |
| CG33221 (retired record) | DRSC21201 | -0.248 | -0.239 |
| Cpr65Ax2 + Cpr65Ax1 | DRSC10341 | -0.219 | -0.411 |
| Cpr65Ax2 + Cpr65Ax1 | DRSC10344 | 0.637 | -0.478 |
| CG14615 | DRSC20627 | 2.91 | 0.924 |
| rb | DRSC18826 | -0.00975 | 0.294 |
| CG1304 | DRSC20494 | 2.02 | -1.34 |
| ND-51L2 | DRSC07080 | 0.219 | 1.81 |
| CG15408 | DRSC00423 | 0.604 | -1.59 |
| RagA-B | DRSC14450 | 0.0292 | -1.53 |
| Rb97D | DRSC16815 | 1.75 | -0.802 |
| CG6707 | DRSC10697 | 0.0908 | 0.125 |
| D19A | DRSC11133 | 3.14 | 5.15 |
| l(2)37Cd | DRSC02069 | 1.84 | -0.605 |
| CG13445 | DRSC09992 | 4.93 | 6.38 |
| BobA | DRSC09889 | -2.37 | -1.48 |
| Brd | DRSC09685 | 0.49 | 0.244 |
| Tina-1 | DRSC04317 | -0.649 | -1.41 |
| Cul3 | DRSC03537 | -2.21 | -1.55 |
| Cul3 | DRSC21525 | -0.426 | -0.34 |
| Uba5 | DRSC19775 | -1.46 | 0.0612 |
| IFT20 + CG10395 | DRSC22660 | -1.07 | 0.122 |
| CG43773 | DRSC00287 | 0.899 | 4.8 |
| CG43773 | DRSC00288 | -0.0571 | -0.185 |
| Gr5a | DRSC18085 | -1.16 | 0.249 |
| Gem2 | DRSC09721 | -0.0237 | 0.174 |
| nudE | DRSC09000 | 0.471 | -0.699 |
| nudE | DRSC10962 | -0.113 | 1.35 |
| CG13217 | DRSC06339 | 0.212 | 0.555 |
| Bgb | DRSC08148 | -0.195 | – |
| CG15143 | DRSC02444 | 0.139 | -0.386 |
| CG17195 | DRSC15188 | 0.418 | 0.311 |
| CG15676 | DRSC04267 | -0.494 | -0.571 |
| Samtor | DRSC04390 | 0.0722 | -1.39 |
| CG13681 (retired record) | DRSC08906 | 0.0925 | -0.0615 |
| CG13681 (retired record) | DRSC08907 | 0.86 | -0.548 |
| CG13681 (retired record) | DRSC10038 | -0.0582 | -0.0491 |
| CG13681 (retired record) | DRSC10039 | -0.241 | -0.904 |
| CG13681 (retired record) | DRSC10927 | 0.0407 | 1.74 |
| CG13681 (retired record) | DRSC10929 | 0.0133 | -0.167 |
| Gle1 | DRSC06485 | 2.13 | 1.43 |
| CG32652 (retired record) | DRSC18942 | 0.179 | -0.709 |
| CG32652 (retired record) | DRSC22662 | 0.177 | 1.2 |
| CheB38a | DRSC03205 | -0.671 | -1.89 |
| Gclc | DRSC18666 | 0.242 | -2 |
| CG9003 | DRSC07317 | -0.507 | 0.384 |
| Spt | DRSC07123 | -1.92 | -1.4 |
| term | DRSC21730 | -0.996 | 0.645 |
| eIF3l | DRSC10530 | 1.12 | 0.328 |
| CG10887 | DRSC14277 | 2.38 | 0.503 |
| bdl | DRSC00271 | 1.79 | -0.888 |
| NAT1 | DRSC06854 | 0.134 | 0.637 |
| croc | DRSC11884 | 0.401 | -0.331 |
| CG8138 | DRSC16386 | -0.0232 | -0.227 |
| Aptx | DRSC15768 | -0.526 | – |
| Ctl1 | DRSC08303 | 1.07 | -1.33 |
| Tpst | DRSC18989 | -0.219 | 0.365 |
| Tpst | DRSC19696 | 0.00324 | -0.338 |
| Tpst | DRSC19723 | -1.3 | -2.68 |
| Tpst | DRSC19724 | 1.72 | -2.77 |
| Tpst | DRSC22621 | -6.72 | -5.01 |
| CG16786 | DRSC04281 | 1.04 | 0.617 |
| CG6204 | DRSC15991 | 0.861 | -2.06 |
| eIF2beta | DRSC11341 | 8.61 | 10.6 |
| Cp7Fa | DRSC18032 | 0.0642 | -0.189 |
| Cp7Fa | DRSC18033 | -0.415 | -1.84 |
| CG42516 + Pbp49 | DRSC06073 | -0.0177 | 0.186 |
| Vps29 | DRSC00666 | 0.14 | 0.917 |
| rumi | DRSC15177 | -2.2 | 0.162 |
| CG17560 | DRSC15242 | -0.937 | 0.191 |
| CG8777 | DRSC07263 | 1.46 | 0.25 |
| CG15461 | DRSC20532 | 1.58 | -1.91 |
| Arf6 | DRSC05921 | -0.21 | 1.14 |
| Cht5 | DRSC16470 | 7.39 | -0.0431 |
| CG3349 | DRSC10359 | -1.01 | 0.87 |
| CG13712 | DRSC08321 | 0.955 | 3.32 |
| CG13694 | DRSC00363 | 0.317 | -0.926 |
| Amyrel | DRSC05920 | – | 0.116 |
| Hira | DRSC18672 | 0.464 | 1.61 |
| Cdc27 | DRSC11112 | -0.784 | 0.394 |
| Ssu72 | DRSC19572 | -0.805 | -0.391 |

Reprinted from above, 14 entries:
| gene | amplicon | droplet/nuclear area B-score, replicate 1 | droplet/nuclear area B-score, replicate 2 |
| --- | --- | --- | --- |
| tHMG1 | DRSC16181 | -1.17 | -1.55 |
| CG33221 (retired record) | DRSC21201 | -0.248 | -0.239 |
| Cpr65Ax2 + Cpr65Ax1 | DRSC10341 | -0.219 | -0.411 |
| Cpr65Ax2 + Cpr65Ax1 | DRSC10344 | 0.637 | -0.478 |
| CG14615 | DRSC20627 | 2.91 | 0.924 |
| rb | DRSC18826 | -0.00975 | 0.294 |
| CG1304 | DRSC20494 | 2.02 | -1.34 |
| ND-51L2 | DRSC07080 | 0.219 | 1.81 |
| CG15408 | DRSC00423 | 0.604 | -1.59 |
| RagA-B | DRSC14450 | 0.0292 | -1.53 |
| Rb97D | DRSC16815 | 1.75 | -0.802 |
| CG6707 | DRSC10697 | 0.0908 | 0.125 |
| D19A | DRSC11133 | 3.14 | 5.15 |
| l(2)37Cd | DRSC02069 | 1.84 | -0.605 |
